Laboratory results taken from US20210347912A1.
Results are given in words; binding and its absence hold for the method and conditions named. Some entries that bind do so weakly or less than the wild type.

Protein sequences, listed by entry. Tags and fused reporters are not part of them. Lines headed by an entry give the natural chain unless they say otherwise; changes in a name come on top.
UniProt P36222: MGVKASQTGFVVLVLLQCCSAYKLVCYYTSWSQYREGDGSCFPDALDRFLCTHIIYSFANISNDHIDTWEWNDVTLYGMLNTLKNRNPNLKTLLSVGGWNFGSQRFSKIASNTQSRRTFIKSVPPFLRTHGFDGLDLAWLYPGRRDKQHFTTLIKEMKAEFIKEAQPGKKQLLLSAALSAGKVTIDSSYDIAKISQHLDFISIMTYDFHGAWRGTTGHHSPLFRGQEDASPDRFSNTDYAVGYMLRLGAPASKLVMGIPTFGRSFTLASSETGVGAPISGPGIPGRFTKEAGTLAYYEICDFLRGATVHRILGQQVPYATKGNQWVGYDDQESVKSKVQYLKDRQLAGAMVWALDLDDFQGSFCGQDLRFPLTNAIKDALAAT

Biological target: Human YKL-40 also known as Chitinase-3-like protein 1 (CHI3L1) (human) (UniProt P36222)
Experiment: phage ELISA on purified YKL-40 (secondary screening)

| Binder | binding |
| --- | --- |
| 4G1 predator (VHH) VHH: EVQLLESGGGLVQPGGSLRLSCAASGFRDSDEDMGWVRQAPGKGLEWVSSIGDESGSTYYADSVKGRFTISRDNSKNTLYLQNSLRAEDTAVYYCASTSDSYWSFDYWGQGTLVTVSS | binds |
| 2D7 predator (VHH) VHH: EVQLLESGGGLVQPGGSLRLSCAASGFRDSDEDMGWVRQAPGKGLEWVSSISGESGSTYYADSVKGRFTISRDNSKNTLYLQMNSLRAEDTAVYYCASVDPLDTYFDYWGQGTLVTVSS | binds |
| 2H12 predator (VHH) VHH: EVQLLESGGGLVQPGGSLRLSCAASGFRDSDEDMGWVRQAPGKGLEWVSSINNESGSTYYADSVKGRFTISRDNSKNTLYLQMNSLRAEDTAVYYCASTSYYGFDFDYWGQGTLVTVSS | binds |
| 4D9 predator (VHH) VHH: EVQLLESGGGLVQPGGSLRLSCAASGFRDSDEDMGWVRQAPGKGLEWVSSIASDSGSTYYADSVKGRFTISRDNSKNTLYLQMNSLRAEDTAVYYCASSGYAGTVFDYWGQGTLVTVSS | binds |
| 2F3 predator (VHH) VHH: EVQLLESGGGLVQPGGSLRLSCAASGFRDSDEDMGWVRQAPGKGLEWVSSIGAGSGSTYYADSVKGRFTISRDNSKNTLYLQMNSLRAEDTAVYYCASSTDARWQFDYWGQGTLVTVSS | binds |
| 3F12 predator (VHH) VHH: EVQLLESGGGLVQPGGSLRLSCAASGFRDSDEDMGWVRQAPGKGLEWVSSINANDGSTYYADSVKGRFTISRDNSKNTLYLQMNSLRAEDTAVYYCASQYDDEFAFDYWGQGTLVTVSS | binds |
| 4D5 predator (VHH) VHH: EVQLLESGGGLVQPGGSLRLSCAASGFRDSDEDMGWVRQAPGKGLEWVSSIGNYNGSTYYADSVKGRFTISRDNSKNTLYLQMNSLRAEDTAVYYCASVSDSGFSFDYWGQGTLVTVSS | binds |
| 4E10 predator (VHH) VHH: EVQLLESGGGLVQPGGSLRLSCAASGFRDSDEDMGWVRQAPGKGLEWVSSIYGPSGSTYYADSVKGRFTISRDNSKNTLYLQMNSLRAEDTAVYYCASSDWDGYSFDYWGQGTLVTVSS | binds |
| 2D3 predator (VHH) VHH: EVQLLESGGGLVQPGGSLRLSCAASGFRDSDEDMGWVRQAPGKGLEWVSSIDAEDGSTYYADSVKGRFTISRDNSKNTLYLQMNSLRAEDTAVYYCASQDGAYYTFDYWGQGTLVTVSS | binds |
